{
  "source": "patent US20240148701A1",
  "about": "“WOULD HEALING METHODS” (The University of Sydney, priority 2021, published 2024)",
  "experiment": "Body weight and blood glucose monitoring, type 2 diabetes model",
  "type": "in vivo, mouse",
  "details": "type 2 diabetes groups, prior to and after infusion",
  "data": [
    {"smiles": "C[C@H](Cc1ccc2c(c1)OC(C(=O)[O-])(C(=O)[O-])O2)NC[C@H](O)c1cccc(Cl)c1.[Na+].[Na+]", "note": "[CL 316,243]", "values": [
      {"measurement": "non-fasted blood glucose levels", "value": "similar"}
    ]}
  ]
}
